Laboratory results as given in PMC12092002.
No constants are given. Whether binding was seen depends on the method and setting. In cells and extracts the contact can be indirect. Some binding calls cover weakened binding; strength is not graded here.

Legend:
[1] = target: T1, NRA-2::VN173 (C. elegans) (UniProt A5JYX8); test: split reporter; BiFC in vivo in C. elegans: split mVenus (VN173 and VC155); FLWR-1 fusion from its own promoter, partner fusion in body wall muscle cells; fluorescence imaged with x100 objective, 460 nm excitation, 500 ms exposure
T1 sequence: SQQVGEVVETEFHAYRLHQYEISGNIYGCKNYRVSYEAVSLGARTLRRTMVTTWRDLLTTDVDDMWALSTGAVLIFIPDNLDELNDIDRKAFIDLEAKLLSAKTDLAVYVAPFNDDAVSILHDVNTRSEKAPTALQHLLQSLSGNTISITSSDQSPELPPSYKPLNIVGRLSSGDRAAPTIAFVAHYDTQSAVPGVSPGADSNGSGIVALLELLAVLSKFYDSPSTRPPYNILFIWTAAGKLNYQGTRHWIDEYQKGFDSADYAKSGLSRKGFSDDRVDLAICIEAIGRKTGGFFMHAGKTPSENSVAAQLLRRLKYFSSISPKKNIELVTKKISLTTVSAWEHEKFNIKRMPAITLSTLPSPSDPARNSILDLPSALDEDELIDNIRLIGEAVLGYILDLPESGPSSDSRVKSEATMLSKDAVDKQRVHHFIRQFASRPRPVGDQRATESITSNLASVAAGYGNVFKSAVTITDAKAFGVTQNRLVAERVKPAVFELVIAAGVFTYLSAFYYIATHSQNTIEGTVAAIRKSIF

[2] = target: T2, UNC-1::VN173 (C. elegans) (UniProt Q21190); test: as above
T2 sequence: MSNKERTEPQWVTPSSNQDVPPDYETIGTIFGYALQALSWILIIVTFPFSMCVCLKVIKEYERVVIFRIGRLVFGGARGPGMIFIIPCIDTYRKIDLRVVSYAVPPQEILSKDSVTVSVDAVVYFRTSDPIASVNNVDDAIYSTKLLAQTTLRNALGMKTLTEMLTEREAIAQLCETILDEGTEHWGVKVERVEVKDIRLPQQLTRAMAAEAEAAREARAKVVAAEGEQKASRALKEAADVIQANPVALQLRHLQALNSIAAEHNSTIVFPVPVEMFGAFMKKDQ

B1: FLWR-1::VC155 (protein, UniProt Q93533 1-166)
chain: MGAAASGVSTQMQAEHDPNAAFPWWVRFLAKGVAILGGFLSLFFGVLGLITLSATCMVAILLQMTAGALVIALEAPFCCQFVDFIEKIARFSESRALWHKAAIYGAMGLIPIFLCIELNTILGSGTIFASGVIYGFMALGKKADRSNMMAAGDPAWSPQVNQSNIP
binding [1]: binds | binding [2]: no binding
